Source: publication PMC6625990, “Structural underpinnings of Ric8A function as a G-protein α-subunit chaperone and guanine-nucleotide exchange factor” (Nature Communications, 2019)
Results are given in words; binding and its absence hold for the method and conditions named.

The chains behind the UniProt entries cited, without tags or fusion partners. Where a name states a change or a piece, a line headed by the entry shows the natural chain unless it says otherwise.
UniProt P04695: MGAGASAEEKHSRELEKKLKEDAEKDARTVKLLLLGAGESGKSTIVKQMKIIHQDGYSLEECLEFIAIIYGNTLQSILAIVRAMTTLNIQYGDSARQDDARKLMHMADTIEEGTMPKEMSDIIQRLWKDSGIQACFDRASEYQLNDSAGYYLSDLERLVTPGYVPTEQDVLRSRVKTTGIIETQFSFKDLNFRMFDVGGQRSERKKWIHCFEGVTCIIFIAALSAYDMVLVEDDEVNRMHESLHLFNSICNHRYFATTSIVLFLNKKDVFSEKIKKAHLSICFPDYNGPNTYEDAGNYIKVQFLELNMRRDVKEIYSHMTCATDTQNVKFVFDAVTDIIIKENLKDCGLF

What follows are binders tested against Gαt333–350 (UniProt P04695) (assay: BLI; N-terminally biotinylated Gα peptides on streptavidin biosensors, Ric8A proteins in solution; Octet RED96, 26 °C, 20 mM Tris, 150 mM KCl, 5% glycerol, 1 mM TCEP, 0.5 mg/ml BSA, pH 8.0; kinetic fit (1:1 model) and steady-state fit (one site); both purified).

| binding | Binder |
| --- | --- |
| no binding | Ric8A1–426 (domain or fragment, UniProt Q5E9J8 1-426) MEPRAVADALETGEEDVVMEALRAYNRENSQSFTFDDAQQEDRKRLAKLLVSVLEQGLPPSRRVIWLQSIRILSRDRSCLDSFTSRRSLQALACYAGISASQGSVPEPLNMDVVLESLKCLCNLVLSSPVAQALAAEAGLVVRLAERVGLCRQSSFPHDVQFFDLRLLFLLTALRTDVRQQLFQELQGVRLLTRALELTLGMTEGERHPELLPPQETERAMEILKVLFNITFDSIKREVDEEDAALYRHLGTLLRHCVMLAAAGDRTEELHGHAVNLLGNLPVKCLDVLLTLEPHEGSLEFLGVNMDVIRVLLSFMEKRLHQTHRLKESVAPVLSVLTECARMHRPARKFLKAQVLPPLRDVRTRPEVGELLRNKLVRLMTHLDTDVKRVAAEFLFVLCSESVPRFIKYTGYGNAAGLLAARGLMA |
| no binding | Ric8A1–492 R75M (domain or fragment, UniProt Q5E9J8 1-492) MEPRAVADALETGEEDVVMEALRAYNRENSQSFTFDDAQQEDRKRLAKLLVSVLEQGLPPSRRVIWLQSIRILSMDRSCLDSFTSRRSLQALACYAGISASQGSVPEPLNMDVVLESLKCLCNLVLSSPVAQALAAEAGLVVRLAERVGLCRQSSFPHDVQFFDLRLLFLLTALRTDVRQQLFQELQGVRLLTRALELTLGMTEGERHPELLPPQETERAMEILKVLFNITFDSIKREVDEEDAALYRHLGTLLRHCVMLAAAGDRTEELHGHAVNLLGNLPVKCLDVLLTLEPHEGSLEFLGVNMDVIRVLLSFMEKRLHQTHRLKESVAPVLSVLTECARMHRPARKFLKAQVLPPLRDVRTRPEVGELLRNKLVRLMTHLDTDVKRVAAEFLFVLCSESVPRFIKYTGYGNAAGLLAARGLMAGGRPEGQYSEDEDTDTDEYKEAKASINPVTGRVEEKPPNPMEGMTEEQKEHEAMKLVNMFDKLSRH |
| no binding | Ric8A1–492 N123E (domain or fragment, UniProt Q5E9J8 1-492) MEPRAVADALETGEEDVVMEALRAYNRENSQSFTFDDAQQEDRKRLAKLLVSVLEQGLPPSRRVIWLQSIRILSRDRSCLDSFTSRRSLQALACYAGISASQGSVPEPLNMDVVLESLKCLCELVLSSPVAQALAAEAGLVVRLAERVGLCRQSSFPHDVQFFDLRLLFLLTALRTDVRQQLFQELQGVRLLTRALELTLGMTEGERHPELLPPQETERAMEILKVLFNITFDSIKREVDEEDAALYRHLGTLLRHCVMLAAAGDRTEELHGHAVNLLGNLPVKCLDVLLTLEPHEGSLEFLGVNMDVIRVLLSFMEKRLHQTHRLKESVAPVLSVLTECARMHRPARKFLKAQVLPPLRDVRTRPEVGELLRNKLVRLMTHLDTDVKRVAAEFLFVLCSESVPRFIKYTGYGNAAGLLAARGLMAGGRPEGQYSEDEDTDTDEYKEAKASINPVTGRVEEKPPNPMEGMTEEQKEHEAMKLVNMFDKLSRH |
